Experiment [1] has as its target HA-Akt (wild type), in HeLa (UniProt P31750). Put plainly: co-IP; HeLa transfected with HA-Akt and Myc-BAG5, serum-starved overnight, then vehicle or 10 ng/mL HGF for 15 min; anti-HA immunoprecipitation, anti-Myc blot.
The target of experiment [2] is HA-Akt (full-length Akt1 tagged with HA), in HEK293T (UniProt P31750). The experiment can be described thus: co-IP; HEK293T cotransfected with HA-Akt and Myc-BAG5; TNTE lysis buffer (50 mM Tris pH 7.5, 150 mM NaCl, 1% Triton X-100, 5 mM EDTA); anti-HA immunoprecipitation, anti-Myc blot.

Protein sequences, listed by entry. Tags and fused reporters are not part of them.
UniProt P31750: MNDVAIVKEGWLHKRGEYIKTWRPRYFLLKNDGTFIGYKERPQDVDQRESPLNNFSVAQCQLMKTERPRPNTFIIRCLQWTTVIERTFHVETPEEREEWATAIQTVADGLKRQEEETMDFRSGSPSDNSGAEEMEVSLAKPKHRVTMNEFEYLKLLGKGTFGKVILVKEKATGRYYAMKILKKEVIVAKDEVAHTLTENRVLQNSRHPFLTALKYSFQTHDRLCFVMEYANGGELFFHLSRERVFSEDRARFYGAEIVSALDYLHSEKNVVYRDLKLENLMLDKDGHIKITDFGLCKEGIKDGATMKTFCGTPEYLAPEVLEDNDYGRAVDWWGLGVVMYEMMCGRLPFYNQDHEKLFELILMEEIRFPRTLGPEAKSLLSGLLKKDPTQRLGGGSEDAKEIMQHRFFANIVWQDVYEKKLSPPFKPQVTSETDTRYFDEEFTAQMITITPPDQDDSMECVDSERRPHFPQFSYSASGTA

Results are given in words; binding and its absence hold for the method and conditions named. Binding seen in cells or lysates may run through a third protein. Some entries that bind do so weakly or less than the wild type. Sequences can lack the tags named with a protein.

B1: Myc-BAG5, in HeLa (protein, UniProt Q9UL15 1-447)
chain: MDMGNQHPSISRLQEIQKEVKSVEQQVIGFSGLSDDKNYKKLERILTKQLFEIDSVDTEGKGDIQQARKRAAQETERLLKELEQNANHPHRIEIQNIFEEAQSLVREKIVPFYNGGNCVTDEFEEGIQDIILRLTHVKTGGKISLRKARYHTLTKICAVQEIIEDCMKKQPSLPLSEDAHPSVAKINFVMCEVNKARGVLIALLMGVNNNETCRHLSCVLSGLIADLDALDVCGRTEIRNYRREVVEDINKLLKYLDLEEEADTTKAFDLRQNHSILKIEKVLKRMREIKNELLQAQNPSELYLSSKTELQGLIGQLDEVSLEKNPCIREARRRAVIEVQTLITYIDLKEALEKRKLFACEEHPSHKAVWNVLGNLSEIQGEVLSFDGNRTDKNYIRLEELLTKQLLALDAVDPQGEEKCKAARKQAVRLAQNILSYLDLKSDEWEY
As for B1, the binding entry in experiment [1] is recorded as “binds”.

B2: Myc-BAG5 (full-length BAG5 tagged with Myc), in HEK293T (protein, UniProt Q9UL15 1-447)
chain: B1 chain
With B2, in experiment [2], the binding result is recorded as “binds”.
